Some of the results follow.

Chains of the proteins cited; added tags and fusions are not shown. Lines headed by an entry give the natural chain unless they say otherwise; changes in a name come on top.
UniProt O43583: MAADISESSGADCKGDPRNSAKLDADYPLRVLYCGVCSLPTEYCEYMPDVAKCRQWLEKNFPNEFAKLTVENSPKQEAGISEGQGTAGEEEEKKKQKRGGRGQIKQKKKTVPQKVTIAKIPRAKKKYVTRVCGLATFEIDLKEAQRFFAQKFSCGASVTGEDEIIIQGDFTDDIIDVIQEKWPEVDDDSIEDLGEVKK
UniProt Q9Y2L1: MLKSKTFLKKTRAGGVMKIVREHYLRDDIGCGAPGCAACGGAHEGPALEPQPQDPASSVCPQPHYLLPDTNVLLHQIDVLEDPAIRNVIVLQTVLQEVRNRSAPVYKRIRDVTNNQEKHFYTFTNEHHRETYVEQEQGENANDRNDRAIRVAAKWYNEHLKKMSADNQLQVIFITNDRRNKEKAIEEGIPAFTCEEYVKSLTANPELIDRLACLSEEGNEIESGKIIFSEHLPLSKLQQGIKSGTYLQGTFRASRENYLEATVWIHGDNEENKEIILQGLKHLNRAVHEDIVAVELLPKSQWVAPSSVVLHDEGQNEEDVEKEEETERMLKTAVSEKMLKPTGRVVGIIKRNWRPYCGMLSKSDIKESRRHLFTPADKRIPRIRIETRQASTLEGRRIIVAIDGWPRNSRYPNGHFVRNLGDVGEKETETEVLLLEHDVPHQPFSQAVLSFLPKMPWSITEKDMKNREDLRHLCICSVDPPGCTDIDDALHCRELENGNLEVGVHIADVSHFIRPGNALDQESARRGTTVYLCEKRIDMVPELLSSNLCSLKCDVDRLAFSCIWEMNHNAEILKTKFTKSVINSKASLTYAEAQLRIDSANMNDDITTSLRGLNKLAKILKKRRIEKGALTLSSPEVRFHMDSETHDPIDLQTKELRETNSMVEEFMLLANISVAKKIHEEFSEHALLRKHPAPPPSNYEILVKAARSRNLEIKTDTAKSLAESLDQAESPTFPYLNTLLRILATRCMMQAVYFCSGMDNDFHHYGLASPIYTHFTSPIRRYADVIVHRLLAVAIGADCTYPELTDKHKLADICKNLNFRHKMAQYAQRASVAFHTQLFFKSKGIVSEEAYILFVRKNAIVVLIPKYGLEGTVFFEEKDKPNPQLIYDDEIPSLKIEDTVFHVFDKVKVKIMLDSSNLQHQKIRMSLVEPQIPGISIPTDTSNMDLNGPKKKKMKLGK
UniProt P0CG22: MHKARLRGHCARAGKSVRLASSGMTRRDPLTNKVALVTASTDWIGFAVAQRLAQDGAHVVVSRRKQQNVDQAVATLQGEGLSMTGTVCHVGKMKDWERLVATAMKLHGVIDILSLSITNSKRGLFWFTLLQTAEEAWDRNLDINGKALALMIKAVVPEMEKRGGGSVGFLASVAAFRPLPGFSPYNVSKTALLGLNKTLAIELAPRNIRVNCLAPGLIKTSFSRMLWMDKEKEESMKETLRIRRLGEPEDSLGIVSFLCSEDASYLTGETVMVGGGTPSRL
UniProt P30046: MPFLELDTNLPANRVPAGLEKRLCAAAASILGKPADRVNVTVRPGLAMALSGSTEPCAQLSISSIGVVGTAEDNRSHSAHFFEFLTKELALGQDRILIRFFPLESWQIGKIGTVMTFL
UniProt P00374: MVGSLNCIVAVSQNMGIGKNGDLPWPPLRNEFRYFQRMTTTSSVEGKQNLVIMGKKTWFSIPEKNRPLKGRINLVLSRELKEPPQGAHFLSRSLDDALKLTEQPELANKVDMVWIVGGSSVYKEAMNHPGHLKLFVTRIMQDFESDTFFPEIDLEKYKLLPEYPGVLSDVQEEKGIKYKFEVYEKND
UniProt Q13574: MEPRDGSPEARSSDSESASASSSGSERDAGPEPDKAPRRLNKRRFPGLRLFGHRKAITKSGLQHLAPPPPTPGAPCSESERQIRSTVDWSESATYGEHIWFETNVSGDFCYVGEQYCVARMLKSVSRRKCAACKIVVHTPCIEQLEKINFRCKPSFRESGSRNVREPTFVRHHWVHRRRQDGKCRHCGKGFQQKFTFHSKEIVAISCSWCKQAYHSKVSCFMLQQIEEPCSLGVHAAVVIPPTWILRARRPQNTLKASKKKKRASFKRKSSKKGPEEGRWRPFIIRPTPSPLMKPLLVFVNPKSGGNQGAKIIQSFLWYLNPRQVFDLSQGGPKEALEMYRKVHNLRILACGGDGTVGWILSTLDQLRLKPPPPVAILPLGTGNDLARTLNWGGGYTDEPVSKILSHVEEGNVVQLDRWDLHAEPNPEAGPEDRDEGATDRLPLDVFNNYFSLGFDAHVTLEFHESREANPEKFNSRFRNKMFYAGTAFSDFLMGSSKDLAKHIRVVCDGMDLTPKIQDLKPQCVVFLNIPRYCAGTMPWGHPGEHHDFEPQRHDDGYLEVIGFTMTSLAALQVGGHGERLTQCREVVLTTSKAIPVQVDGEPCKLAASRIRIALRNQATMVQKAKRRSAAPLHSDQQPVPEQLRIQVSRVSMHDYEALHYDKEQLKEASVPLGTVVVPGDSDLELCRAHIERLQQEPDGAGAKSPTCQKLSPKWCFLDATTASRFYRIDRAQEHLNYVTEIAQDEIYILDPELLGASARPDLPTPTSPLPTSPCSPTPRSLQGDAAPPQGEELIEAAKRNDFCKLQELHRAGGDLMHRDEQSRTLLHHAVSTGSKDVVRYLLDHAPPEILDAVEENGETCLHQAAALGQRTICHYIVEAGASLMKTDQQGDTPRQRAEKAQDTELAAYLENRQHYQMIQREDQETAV
UniProt Q9NVR5: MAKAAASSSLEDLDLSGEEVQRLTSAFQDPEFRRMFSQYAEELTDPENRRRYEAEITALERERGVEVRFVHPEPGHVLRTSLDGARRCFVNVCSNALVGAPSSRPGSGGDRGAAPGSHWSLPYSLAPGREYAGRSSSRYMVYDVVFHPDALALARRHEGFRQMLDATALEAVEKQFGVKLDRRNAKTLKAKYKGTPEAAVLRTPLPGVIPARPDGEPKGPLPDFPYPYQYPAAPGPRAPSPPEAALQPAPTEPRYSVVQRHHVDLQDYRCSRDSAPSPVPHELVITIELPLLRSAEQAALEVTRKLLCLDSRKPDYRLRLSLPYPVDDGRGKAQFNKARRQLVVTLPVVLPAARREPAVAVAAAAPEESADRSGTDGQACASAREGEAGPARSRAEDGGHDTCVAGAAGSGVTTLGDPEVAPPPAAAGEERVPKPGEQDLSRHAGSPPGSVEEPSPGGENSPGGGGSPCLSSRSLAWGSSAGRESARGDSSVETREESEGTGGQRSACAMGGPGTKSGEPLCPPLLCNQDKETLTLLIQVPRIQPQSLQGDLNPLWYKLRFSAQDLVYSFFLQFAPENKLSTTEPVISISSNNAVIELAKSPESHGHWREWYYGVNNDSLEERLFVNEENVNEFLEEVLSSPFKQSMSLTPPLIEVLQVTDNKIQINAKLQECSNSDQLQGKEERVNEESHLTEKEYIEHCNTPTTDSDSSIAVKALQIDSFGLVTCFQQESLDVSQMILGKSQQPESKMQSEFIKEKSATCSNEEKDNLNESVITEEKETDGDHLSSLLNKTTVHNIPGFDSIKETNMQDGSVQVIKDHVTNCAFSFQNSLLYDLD
UniProt Q8IWF6: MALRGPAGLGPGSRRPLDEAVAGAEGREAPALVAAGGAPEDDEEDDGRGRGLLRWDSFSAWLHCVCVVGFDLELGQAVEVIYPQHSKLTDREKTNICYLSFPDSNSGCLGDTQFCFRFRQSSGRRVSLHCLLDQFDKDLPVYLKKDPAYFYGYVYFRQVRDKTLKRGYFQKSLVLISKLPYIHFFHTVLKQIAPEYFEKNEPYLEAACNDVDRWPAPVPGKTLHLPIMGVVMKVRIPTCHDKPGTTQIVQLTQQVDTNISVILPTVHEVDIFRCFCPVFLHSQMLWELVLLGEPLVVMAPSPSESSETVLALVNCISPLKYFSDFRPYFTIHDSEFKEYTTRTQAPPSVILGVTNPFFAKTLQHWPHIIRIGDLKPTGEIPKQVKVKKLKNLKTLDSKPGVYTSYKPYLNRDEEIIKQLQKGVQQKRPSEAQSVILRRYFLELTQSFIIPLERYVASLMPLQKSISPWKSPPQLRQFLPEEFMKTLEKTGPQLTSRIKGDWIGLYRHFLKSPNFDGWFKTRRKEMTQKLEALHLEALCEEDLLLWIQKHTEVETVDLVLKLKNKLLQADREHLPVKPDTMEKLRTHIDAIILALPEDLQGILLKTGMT
UniProt P09622, whole entry, looked up: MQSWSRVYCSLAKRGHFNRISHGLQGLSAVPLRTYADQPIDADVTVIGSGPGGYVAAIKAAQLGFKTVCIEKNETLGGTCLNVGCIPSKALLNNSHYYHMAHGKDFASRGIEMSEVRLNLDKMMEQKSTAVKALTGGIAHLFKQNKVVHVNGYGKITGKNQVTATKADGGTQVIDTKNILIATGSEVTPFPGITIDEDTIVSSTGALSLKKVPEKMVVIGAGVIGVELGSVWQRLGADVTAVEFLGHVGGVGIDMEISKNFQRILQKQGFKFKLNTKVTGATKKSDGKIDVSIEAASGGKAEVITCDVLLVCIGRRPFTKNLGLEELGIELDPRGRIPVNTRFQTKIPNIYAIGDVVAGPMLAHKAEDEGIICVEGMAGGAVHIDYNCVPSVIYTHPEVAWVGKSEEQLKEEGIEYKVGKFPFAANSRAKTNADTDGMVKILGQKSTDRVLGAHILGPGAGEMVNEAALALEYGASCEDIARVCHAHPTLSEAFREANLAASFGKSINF
UniProt O95865: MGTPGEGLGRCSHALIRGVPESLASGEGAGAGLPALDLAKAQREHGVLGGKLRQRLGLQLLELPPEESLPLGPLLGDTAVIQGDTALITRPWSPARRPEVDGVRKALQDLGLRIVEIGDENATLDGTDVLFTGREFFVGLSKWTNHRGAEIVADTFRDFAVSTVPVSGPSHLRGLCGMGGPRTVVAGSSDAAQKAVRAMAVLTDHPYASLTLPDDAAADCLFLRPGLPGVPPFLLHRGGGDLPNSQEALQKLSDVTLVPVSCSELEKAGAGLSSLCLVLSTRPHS
UniProt Q96GE9: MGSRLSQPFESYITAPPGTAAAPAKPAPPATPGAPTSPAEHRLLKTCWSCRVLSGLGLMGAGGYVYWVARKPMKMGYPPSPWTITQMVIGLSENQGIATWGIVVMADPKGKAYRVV
UniProt P17661, whole entry, looked up: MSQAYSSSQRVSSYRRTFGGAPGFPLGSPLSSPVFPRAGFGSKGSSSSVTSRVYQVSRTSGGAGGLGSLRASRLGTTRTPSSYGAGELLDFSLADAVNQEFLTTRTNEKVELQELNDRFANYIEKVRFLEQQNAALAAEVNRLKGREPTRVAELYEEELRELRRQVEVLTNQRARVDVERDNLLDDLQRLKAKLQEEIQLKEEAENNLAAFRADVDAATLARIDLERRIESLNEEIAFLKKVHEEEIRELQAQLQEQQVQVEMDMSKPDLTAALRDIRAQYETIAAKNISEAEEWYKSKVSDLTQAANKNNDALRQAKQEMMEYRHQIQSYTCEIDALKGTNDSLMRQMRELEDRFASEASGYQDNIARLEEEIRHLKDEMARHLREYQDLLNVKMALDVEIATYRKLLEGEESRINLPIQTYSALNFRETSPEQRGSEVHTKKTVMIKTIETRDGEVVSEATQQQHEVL
UniProt O75907: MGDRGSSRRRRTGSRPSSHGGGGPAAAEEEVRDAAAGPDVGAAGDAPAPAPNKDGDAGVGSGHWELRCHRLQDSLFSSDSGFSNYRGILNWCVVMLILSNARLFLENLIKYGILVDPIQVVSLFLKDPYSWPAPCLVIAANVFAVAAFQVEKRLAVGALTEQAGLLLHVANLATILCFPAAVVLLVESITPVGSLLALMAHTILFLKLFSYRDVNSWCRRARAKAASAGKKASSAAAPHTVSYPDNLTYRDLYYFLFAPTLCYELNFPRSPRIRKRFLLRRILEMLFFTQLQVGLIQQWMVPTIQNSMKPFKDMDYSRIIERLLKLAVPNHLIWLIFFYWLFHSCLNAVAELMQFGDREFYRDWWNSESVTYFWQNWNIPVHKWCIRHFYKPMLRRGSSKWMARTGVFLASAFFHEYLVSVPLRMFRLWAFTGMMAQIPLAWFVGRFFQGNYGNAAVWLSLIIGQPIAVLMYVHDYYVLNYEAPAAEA
UniProt Q6UWP2: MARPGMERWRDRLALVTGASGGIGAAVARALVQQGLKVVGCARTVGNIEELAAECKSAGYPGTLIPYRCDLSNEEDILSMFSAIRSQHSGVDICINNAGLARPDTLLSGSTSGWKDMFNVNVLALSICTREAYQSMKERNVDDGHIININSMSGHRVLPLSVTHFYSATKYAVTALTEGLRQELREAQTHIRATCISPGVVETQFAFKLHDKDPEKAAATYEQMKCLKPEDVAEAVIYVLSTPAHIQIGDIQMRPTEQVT

The source of these data is the supplement of paper PMC10849652.

Holding throughout (experiment): log2 fold change, soluble protein after heating vs DMSO (PISA); higher = thermal stabilisation; K562 cells, 10 uM, 30 min; active = over 0.2 and 3.5 SD of the protein, either way, in both replicates (recomputed)
Compound in assay [1]: NC(=O)Nc1cc(-c2cccc(F)c2)sc1C(=O)N[C@H]1CCCNC1
An outline of the steps:
(§1)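 K562 cells at 2×10^6 cells/mL were treated for 30 min with 10 μM compound, and aliquots were heated for 3 min over 48°C-58°C before pooling. Extraction used PBS with 0.5% NP-40 at 4°C, and soluble protein was the supernatant after 21,000xg for 90 min, measured by TMTpro 16plex LC-MS/MS with channel sums equalised. Thermal stability values, relative to control samples and from duplicates, are log2 fold changes.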

Compound in assay [2]: NC(=O)c1cnc(N[C@@H]2CCCC[C@@H]2N)nc1Nc1cccc(-n2nccn2)c1
An outline of the steps: as §1

Compound in assay [3]: NC1(c2ccc(-c3nc4ccn5c(=O)[nH]nc5c4cc3-c3ccccc3)cc2)CCC1
An outline of the steps:
as §1

Compound in assay [4]: NCC(=O)Nc1ccc(-n2nc(C(F)(F)F)cc2-c2ccc3c(ccc4ccccc43)c2)cc1
An outline of the steps:
as §1

Compound in the next assay: Nc1ccccc1NC(=O)c1ccc(CNC(=O)OCc2cccnc2)cc1 [entinostat]
Put shortly: as §1

Compound in another assay: O=C(CCCCCCC(=O)Nc1ccccc1)NO [vorinostat]
Put shortly: as §1

Compound in a further assay: O=C(CCCCCCNC(=O)c1cnc(N(c2ccccc2)c2ccccc2Cl)nc1)NO [citarinostat]
Put shortly: as §1

Compound in another assay: O=C(O)c1ccc2c(c1)nc(Nc1cccc(Cl)c1)c1ccncc12 [silmitasertib]
Put shortly:
as §1

Compound in assay [5]: O=C1NC(=O)C(c2cnc3ccccn23)=C1c1cn2c3c(cc(F)cc13)CN(C(=O)N1CCCCC1)CC2
An outline of the steps: as §1

Compound in assay [6]: c1cc(OCCN2CCCCC2)cc(-c2n[nH]c3ccc(-c4nnc[nH]4)cc23)c1
An outline of the steps:
as §1

Regarding DENR (UniProt O43583), the log2 fold change was inactive: -0.001 in assay [1]; inactive: 0.004 in assay [2]; inactive: 0.033 in assay [3]; inactive: 0.024 in [4]; inactive: -0.013 with entinostat; inactive: 0.003 with vorinostat. The log2 fold change with citarinostat was inactive: -0.053; in the assay with silmitasertib, inactive: -0.073; in assay [5], inactive: -0.004; in [6] it was inactive: 0.001.

Regarding DIS3 (UniProt Q9Y2L1), the log2 fold change is inactive: -0.053 in assay [1]; inactive: -0.052 in [2]; inactive: -0.181 in [3]; inactive: -0.083 in assay [4]; inactive: 0.104 with entinostat; inactive: 0.096 with vorinostat. Also, the log2 fold change in the assay with citarinostat is inactive: 0.117; with silmitasertib it was inactive: 0.014; in [5] it was inactive: -0.069; in assay [6] it was inactive: 0.058.

As for DHRS4L1 (UniProt P0CG22), the log2 fold change in assay [1] was inactive: -0.075; in [2] it was inactive: -0.005; in [3] it was inactive: -0.024; in [4] it was inactive: -0.01; with entinostat it was inactive: 0.016; with vorinostat it was inactive: -0.022. Further, the log2 fold change is inactive: -0.013 with citarinostat, inactive: -0.026 with silmitasertib, inactive: -0.048 in [5] and inactive: -0.027 in assay [6].

With DDT (UniProt P30046), the log2 fold change was inactive: -0.004 in [1]; inactive: 0.008 in assay [2]; inactive: -0.014 in [3]; inactive: 0.039 in assay [4]; inactive: -0.006 with entinostat; inactive: -0.02 with vorinostat. Besides, the log2 fold change with citarinostat is inactive: 0.056; in the assay with silmitasertib, inactive: -0.064; in assay [5], inactive: -0.105; in [6] it was inactive: -0.044.

Turning to DHFR (UniProt P00374), the log2 fold change in assay [1] was inactive: 0.095; in [2], inactive: 0.209; in [3], active: 0.849; in [4] it was inactive: -0.139; in the assay with entinostat, inactive: -0.02; with vorinostat, inactive: 0.082. The log2 fold change is inactive: 0.042 with citarinostat, active: 0.57 with silmitasertib, inactive: 0.072 in [5] and inactive: -0.048 in assay [6].

As for DGKZ (UniProt Q13574), the log2 fold change in [1] is inactive: -0.019; in assay [2], inactive: -0.06; in [3], inactive: 0.034; in assay [4] it was inactive: -0.125; with entinostat it was inactive: 0.079; with vorinostat, inactive: -0.053. The log2 fold change is inactive: -0.088 with citarinostat, inactive: 0.027 with silmitasertib, inactive: -0.024 in assay [5] and inactive: -0.068 in assay [6].

On to DDA1 (UniProt Q9BW61), for which the log2 fold change in assay [1] is inactive: -0.031; in assay [2], inactive: -0.051; in assay [3], inactive: -0.049; in assay [4], inactive: 0.013; in the assay with entinostat, inactive: -0.002; with vorinostat it was inactive: -0.031. Besides, the log2 fold change with citarinostat was inactive: 0.022; with silmitasertib, inactive: -0.011; in assay [5] it was inactive: -0.076; in assay [6], inactive: -0.037.

For the target DNAAF2 (UniProt Q9NVR5), the log2 fold change in assay [1] was inactive: 0.039; in [2], inactive: 0.025; in [3], inactive: -0.042; in assay [4], inactive: -0.044; in the assay with entinostat it was inactive: -0.06; in the assay with vorinostat, inactive: 0. In addition, the log2 fold change with citarinostat was inactive: -0.034; with silmitasertib it was inactive: 0.016; in assay [5], inactive: -0.003; in assay [6], inactive: -0.03.

Turning to DENND6A (UniProt Q8IWF6), the log2 fold change was inactive: -0.055 in assay [1]; inactive: -0.165 in assay [2]; inactive: -0.05 in [3]; inactive: -0.031 in assay [4]; inactive: 0.037 in the assay with entinostat; inactive: 0 with vorinostat. Also, the log2 fold change with citarinostat is inactive: -0.077; in the assay with silmitasertib, inactive: 0.1; in [5], inactive: -0.028; in [6] it was inactive: -0.11.

As for DLD (UniProt P09622), the log2 fold change was inactive: 0.003 in [1]; inactive: 0.007 in assay [2]; inactive: -0.088 in assay [3]; inactive: 0.033 in [4]; inactive: -0.013 with entinostat; inactive: -0.02 in the assay with vorinostat. Moreover, the log2 fold change is inactive: 0.011 with citarinostat, inactive: -0.042 in the assay with silmitasertib, inactive: -0.004 in assay [5] and inactive: -0.093 in assay [6].

As for DDAH2 (UniProt O95865), the log2 fold change is inactive: -0.066 in [1]; inactive: -0.086 in assay [2]; inactive: 0.037 in assay [3]; inactive: -0.025 in [4]; inactive: 0.028 in the assay with entinostat; inactive: -0.053 with vorinostat. Also, the log2 fold change with citarinostat is inactive: 0.021; with silmitasertib it was inactive: -0.044; in assay [5], inactive: -0.122; in assay [6], inactive: -0.011.

For DMAC1 (UniProt Q96GE9), the log2 fold change in assay [1] was inactive: 0.136; in [2], inactive: 0.031; in assay [3], inactive: 0.015; in assay [4], inactive: -0.07; with entinostat, inactive: -0.004; in the assay with vorinostat it was inactive: 0.019. For the same target, the log2 fold change with citarinostat was inactive: -0.003; with silmitasertib, inactive: -0.185; in assay [5] it was inactive: -0.427; in assay [6], inactive: 0.113.

Turning to DES (UniProt P17661), the log2 fold change is inactive: -0.01 in [1]; inactive: -0.1 in assay [2]; inactive: -0.055 in [3]; inactive: 0.034 in [4]; inactive: -0.016 with entinostat; inactive: -0.05 with vorinostat. Moreover, the log2 fold change with citarinostat was inactive: 0.006; with silmitasertib, inactive: -0.014; in [5], inactive: 0.058; in [6], inactive: -0.1.

For DGAT1 (UniProt O75907), the log2 fold change in assay [1] was inactive: 0.04; in assay [2], inactive: -0.019; in assay [3], inactive: 0.022; in assay [4], inactive: 0.054; with entinostat, inactive: 0.017; with vorinostat, inactive: 0.006. For the same target, the log2 fold change with citarinostat was inactive: 0.016; with silmitasertib, inactive: 0.07; in [5], inactive: 0.106; in assay [6], inactive: -0.16.

For the target DHRS11 (UniProt Q6UWP2), the log2 fold change in assay [1] is inactive: -0.014; in assay [2], inactive: -0.036; in assay [3], inactive: -0.036; in assay [4], inactive: 0.014; in the assay with entinostat, inactive: -0.053; with vorinostat it was inactive: 0.053. In addition, the log2 fold change was inactive: 0.016 with citarinostat, inactive: -0.016 with silmitasertib, inactive: -0.079 in [5] and inactive: 0.045 in assay [6].
